This note sets out measurements from article doi:10.1101/866137.

These are yes or no findings as the source states them, for the method shown.

The target in assay [1] is T1, Plasmodium falciparum Hsp70-Hsp90 organizing protein (PfHop) (Plasmodium falciparum), Q8ILC1.
T1 chain: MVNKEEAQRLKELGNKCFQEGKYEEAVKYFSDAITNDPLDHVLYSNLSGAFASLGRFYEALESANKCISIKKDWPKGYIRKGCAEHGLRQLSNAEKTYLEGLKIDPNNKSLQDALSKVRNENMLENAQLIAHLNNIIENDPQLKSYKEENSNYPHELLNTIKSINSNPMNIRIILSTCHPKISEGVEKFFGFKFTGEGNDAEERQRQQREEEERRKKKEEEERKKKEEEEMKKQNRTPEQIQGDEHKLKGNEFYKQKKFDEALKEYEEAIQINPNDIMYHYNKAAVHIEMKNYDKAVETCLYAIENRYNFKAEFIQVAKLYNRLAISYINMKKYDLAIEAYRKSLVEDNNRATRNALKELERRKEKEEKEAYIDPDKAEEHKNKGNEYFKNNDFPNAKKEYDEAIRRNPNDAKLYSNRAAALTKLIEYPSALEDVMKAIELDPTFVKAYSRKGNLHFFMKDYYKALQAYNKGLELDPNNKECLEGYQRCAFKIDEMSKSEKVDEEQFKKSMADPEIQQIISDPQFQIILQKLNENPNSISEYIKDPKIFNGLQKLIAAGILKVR
Nature of the assay: SEC. Conditions: remark: other sources report otherwise.

In assay [2] the target is T1, Plasmodium falciparum Hsp70-Hsp90 …. The experiment in a line: SEC-MALS. To be noted: remark: other sources report otherwise. (In general: In gel filtration, larger molecules generally elute earlier.)

B1: Plasmodium falciparum Hsp70-Hsp90 organizing protein (PfHop), Q8ILC1 1-564 (protein)
chain: T1 chain
For B1, the binding entry in assay [1] is “no binding”; in assay [2], “no binding (tested: 100 µg injected)”.
